Taken from: PubChem BioAssay AID602196 (INSERM, 2012)
Assay: 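Genes whose knock-down alters cisplatin killing of lung cancer cells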. System: human A549 lung cancer cells. Reagents: siRNA pair against human genes. Time to read-out: 48 h transfection before cisplatin; time from cisplatin to read-out not stated. Treatment: cisplatin at a dose killing half of control-siRNA cells; exact dose and duration not given. Read-out: 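Cisplatin cell death as a shift from the 50% death seen with control siRNA; siRNAs toxic or growth-blocking alone scored 0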. Direction: two-siRNA summed score (-2 to +2): higher = both siRNAs protect from cisplatin killing; -2 means both sensitise; mean protection from cisplatin (shift in death) and protection from cisplatin (shift in death), siRNA C and protection from cisplatin (shift in death), siRNA D: higher = protection from cisplatin killing. Active means: 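siRNAs harmful alone (LDH or WST-1) get 0; others get +1 for less and -1 for more cisplatin killing; genes are active when the two siRNAs give the same sign, summing to ±2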. Meaning of the calls: active = both siRNAs shift cisplatin killing the same way; inactive = no consistent shift, or siRNA harmful alone.
Here is an unselected part of about 23,000 reagents. Of all reagents, 455 (2%) were called active. 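Active includes both protection and sensitisation; some change values fall well beyond the stated -50 to +50 range.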 Reagents against one gene are numbered here. No sequences are given here. Not given: the amount of reagent.

gene knocked down,reagent no.,two-siRNA summed score (-2 to +2),mean protection from cisplatin (shift in death) (%),"protection from cisplatin (shift in death), siRNA C (%)","protection from cisplatin (shift in death), siRNA D (%)",outcome
CALU,1,-1,-9.4,-5.8,-13,inactive
MBD1,1,-1,-19.1,4.7,-42.8,inactive
LOC400741,1,0,-10.5,-24,2.9,inactive
SCUBE3,1,0,-4.9,-2,-7.9,inactive
MGC26694,1,0,1.8,12.3,-8.6,inactive
STXBP5,1,-1,-10.7,-9.9,-11.6,inactive
DHX37,1,0,-3.5,-2.1,-4.9,inactive
ZNF622,1,0,8.5,8.4,8.6,inactive
LOC388189,1,-1,-4.2,-9.1,0.7,inactive
UBIAD1,1,0,8.6,7,10.3,inactive
MYOT,1,1,12.9,13.2,12.6,inactive
LINC00574,1,0,2.2,5.1,-0.8,inactive
LINC01446,1,0,3.4,5.9,1,inactive
COASY,1,0,1.2,2.7,-0.2,inactive
TM2D3,1,1,19.1,20.9,17.3,inactive
NDUFA12,1,0,13.2,11,15.3,inactive
CLEC4A,1,0,-10.1,-8.7,-11.5,inactive
ARMH1,1,0,4.4,4.1,4.6,inactive
LOC440289,1,1,11.5,13.6,9.3,inactive
AIMP1,1,0,10.2,16.7,3.7,inactive
ARID3C,1,0,11,16.2,5.9,inactive

6 entries already listed, ordered by “protection from cisplatin (shift in death), siRNA C (%)”, low to high:
gene knocked down,reagent no.,two-siRNA summed score (-2 to +2),mean protection from cisplatin (shift in death) (%),"protection from cisplatin (shift in death), siRNA C (%)","protection from cisplatin (shift in death), siRNA D (%)",outcome
STXBP5,1,-1,-10.7,-9.9,-11.6,inactive
LOC388189,1,-1,-4.2,-9.1,0.7,inactive
DHX37,1,0,-3.5,-2.1,-4.9,inactive
SCUBE3,1,0,-4.9,-2,-7.9,inactive
ZNF622,1,0,8.5,8.4,8.6,inactive
MGC26694,1,0,1.8,12.3,-8.6,inactive

Further entries:
gene knocked down,reagent no.,two-siRNA summed score (-2 to +2),mean protection from cisplatin (shift in death) (%),"protection from cisplatin (shift in death), siRNA C (%)","protection from cisplatin (shift in death), siRNA D (%)",outcome
LOC339377,1,0,2.2,7.7,-3.2,inactive
LOC143678,1,0,12.7,-11.4,36.7,inactive
RBBP8,1,1,9.8,-12.1,31.7,inactive
OCIAD2,1,0,11.9,17.6,6.2,inactive
OCIAD2,2,1,20,22.4,17.6,inactive
B3GALT4,1,0,-5.1,18.6,-28.8,inactive
WNT3,1,1,14.1,10.2,17.9,inactive
KRTAP17-1,1,-1,-14.5,-7,-21.9,inactive
DAZ4,1,1,14.4,13.8,15.1,inactive
AWAT2,1,0,-3.5,4,-10.9,inactive
LOC388790,1,0,3.4,7.2,-0.3,inactive
RORB,1,0,-2.5,-3.3,-1.6,inactive
PCDHA5,1,0,8.9,10.1,7.8,inactive
ARL8B,1,0,-0.1,-1,0.7,inactive
LOC440001,1,0,10.2,5.1,15.3,inactive
EDA2R,1,0,9.3,5.5,13.1,inactive
SERPINA12,1,1,11.2,23.6,-1.1,inactive
KIF21A,1,0,12,13.8,10.1,inactive
